The values below come from PMC4179493.

Sequences of proteins named here, by UniProt entry; tags and fusion partners are left off.
UniProt Q8BK67: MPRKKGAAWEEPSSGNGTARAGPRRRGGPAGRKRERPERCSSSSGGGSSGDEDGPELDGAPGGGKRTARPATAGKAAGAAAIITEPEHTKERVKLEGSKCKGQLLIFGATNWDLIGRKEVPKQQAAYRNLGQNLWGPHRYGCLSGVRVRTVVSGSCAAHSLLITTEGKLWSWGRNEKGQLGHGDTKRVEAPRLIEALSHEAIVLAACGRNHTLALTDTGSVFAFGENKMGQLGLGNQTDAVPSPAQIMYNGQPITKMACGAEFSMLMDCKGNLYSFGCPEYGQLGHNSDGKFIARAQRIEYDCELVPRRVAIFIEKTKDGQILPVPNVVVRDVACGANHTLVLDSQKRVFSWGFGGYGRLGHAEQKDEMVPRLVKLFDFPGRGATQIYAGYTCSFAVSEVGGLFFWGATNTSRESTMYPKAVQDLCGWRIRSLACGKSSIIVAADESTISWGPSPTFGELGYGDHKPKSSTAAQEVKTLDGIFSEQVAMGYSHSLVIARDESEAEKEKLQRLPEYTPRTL

Read-outs that look alike come from different tables or passages of the source. These are yes or no findings as the source states them, for the method shown. Binding seen in cells or lysates may run through a third protein. Some results given as binding are weak or reduced against the parent protein; the word gives no strength. For some of these results: Where a sequence is shown, tags or fusion partners need not be part of it.

Assay [1] has as its target GFP–RCC2 (UniProt Q9P258). Nature of the assay: co-IP; GFP-tagged protein or GFP precipitated by GFP-Trap from transfected HEK-293T lysates; co-precipitated endogenous proteins by western blot.
In assay [2] the target is endogenous RCC2 (fibroblasts or cells not named) (not stated (endogenous in fibroblasts; MEFs and human fibroblasts were cultured)) (UniProt Q8BK67). Nature of the assay: co-IP; endogenous proteins co-immunoprecipitated from fibroblasts.
A further assay deals with GFP–Coro1C (UniProt Q9ULV4). Nature of the assay: co-IP; GFP-tagged protein or GFP precipitated by GFP-Trap from transfected HEK-293T lysates; co-precipitated endogenous proteins by western blot. (In general: Immunoblotting shows a protein as a band on a membrane.)
The target in assay [3] is GFP–RCC2 (UniProt Q9P258). The description is as above. This is another data set of the same source.

For the molecule “endogenous Coro1C (293T) (from UniProt Q9ULV4 1-474)”, the binding entry in the assay with GFP–RCC2 [1] is on record as “binds”. For the molecule “endogenous Coro1C (fibroblasts or cells not named) (from UniProt Q9WUM4 1-474)”, in assay [2], the binding entry was “binds”. For “endogenous RCC2 (293T) (from UniProt Q9P258 1-522)”, the binding result with GFP–Coro1C was “binds”.

B1: endogenous RhoGDI (cells expressing GFP–RCC2) (protein, UniProt P52565 1-204)
chain: MAEQEPTAEQLAQIAAENEEDEHSVNYKPPAQKSIQEIQELDKDDESLRKYKEALLGRVAVSADPNVPNVVVTGLTLVCSSAPGPLELDLTGDLESFKKQSFVLKEGVEYRIKISFRVNREIVSGMKYIQHTYRKGVKIDKTDYMVGSYGPRAEEYEFLTPVEEAPKGMLARGSYSIKSRFTDDDKTDHLSWEWNLTIKKDWKD
Consider B1, for which the binding entry with GFP–RCC2 [3] is “no binding”.
